From article doi:10.1101/2020.12.18.423402 come the findings set out here.

Protein sequences, listed by entry. Tags and fused reporters are not part of them. Residues count along the entry.
UniProt Q01974, residues 34-943: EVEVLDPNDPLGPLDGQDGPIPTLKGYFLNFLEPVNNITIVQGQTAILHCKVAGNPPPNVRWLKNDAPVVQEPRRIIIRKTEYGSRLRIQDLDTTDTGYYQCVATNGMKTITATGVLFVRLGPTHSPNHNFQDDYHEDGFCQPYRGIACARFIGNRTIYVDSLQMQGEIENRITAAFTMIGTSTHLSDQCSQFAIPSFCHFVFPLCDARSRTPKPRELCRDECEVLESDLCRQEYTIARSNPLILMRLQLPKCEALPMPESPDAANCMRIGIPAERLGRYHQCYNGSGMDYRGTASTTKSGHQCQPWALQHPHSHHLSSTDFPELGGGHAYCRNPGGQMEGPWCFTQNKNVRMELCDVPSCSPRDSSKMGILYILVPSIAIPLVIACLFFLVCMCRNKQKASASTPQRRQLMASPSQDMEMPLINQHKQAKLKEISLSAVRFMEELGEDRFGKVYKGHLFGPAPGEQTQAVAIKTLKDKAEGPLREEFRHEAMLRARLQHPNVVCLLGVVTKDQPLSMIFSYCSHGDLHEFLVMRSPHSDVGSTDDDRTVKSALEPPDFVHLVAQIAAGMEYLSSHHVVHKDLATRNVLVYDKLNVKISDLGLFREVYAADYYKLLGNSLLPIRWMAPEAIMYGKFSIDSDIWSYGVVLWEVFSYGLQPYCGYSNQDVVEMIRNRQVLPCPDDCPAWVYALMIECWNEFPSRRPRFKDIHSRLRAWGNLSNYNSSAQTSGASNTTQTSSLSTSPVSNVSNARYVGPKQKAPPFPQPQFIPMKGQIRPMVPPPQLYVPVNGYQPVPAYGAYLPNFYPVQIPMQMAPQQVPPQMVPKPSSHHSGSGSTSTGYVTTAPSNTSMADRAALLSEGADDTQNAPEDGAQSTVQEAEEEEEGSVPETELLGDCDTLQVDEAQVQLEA

Results are given in words; binding and its absence hold for the method and conditions named. In cells and extracts the contact can be indirect. Some binding calls cover weakened binding; strength is not graded here. Sequences can lack the tags named with a protein.

The assay concerns the target T1, V5-tagged active WNT11 (UniProt O96014).
T1 sequence: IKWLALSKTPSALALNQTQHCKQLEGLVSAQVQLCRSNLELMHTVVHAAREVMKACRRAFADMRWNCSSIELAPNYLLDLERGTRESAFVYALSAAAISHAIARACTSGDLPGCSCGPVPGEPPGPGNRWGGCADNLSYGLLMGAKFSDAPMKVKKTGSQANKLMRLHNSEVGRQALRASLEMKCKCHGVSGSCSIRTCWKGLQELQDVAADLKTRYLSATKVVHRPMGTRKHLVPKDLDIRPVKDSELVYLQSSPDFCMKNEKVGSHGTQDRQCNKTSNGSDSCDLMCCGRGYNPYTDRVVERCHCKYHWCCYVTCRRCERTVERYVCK
The assay is described as follows: co-IP.

On to “ROR2 full length (pROR2-FL) (from UniProt Q01974 34-943) (receptor)”, for which the binding result is reported as “binds”.
